Experimental data: PMC5520684
Results are given in words; binding and its absence hold for the method and conditions named. Binding seen in cells or lysates may run through a third protein. Some binding calls cover weakened binding; strength is not graded here. Tags and fused reporters may be left off the sequences shown.

T1: Flag-tagged praja2 (UniProt O43164)
T1 sequence: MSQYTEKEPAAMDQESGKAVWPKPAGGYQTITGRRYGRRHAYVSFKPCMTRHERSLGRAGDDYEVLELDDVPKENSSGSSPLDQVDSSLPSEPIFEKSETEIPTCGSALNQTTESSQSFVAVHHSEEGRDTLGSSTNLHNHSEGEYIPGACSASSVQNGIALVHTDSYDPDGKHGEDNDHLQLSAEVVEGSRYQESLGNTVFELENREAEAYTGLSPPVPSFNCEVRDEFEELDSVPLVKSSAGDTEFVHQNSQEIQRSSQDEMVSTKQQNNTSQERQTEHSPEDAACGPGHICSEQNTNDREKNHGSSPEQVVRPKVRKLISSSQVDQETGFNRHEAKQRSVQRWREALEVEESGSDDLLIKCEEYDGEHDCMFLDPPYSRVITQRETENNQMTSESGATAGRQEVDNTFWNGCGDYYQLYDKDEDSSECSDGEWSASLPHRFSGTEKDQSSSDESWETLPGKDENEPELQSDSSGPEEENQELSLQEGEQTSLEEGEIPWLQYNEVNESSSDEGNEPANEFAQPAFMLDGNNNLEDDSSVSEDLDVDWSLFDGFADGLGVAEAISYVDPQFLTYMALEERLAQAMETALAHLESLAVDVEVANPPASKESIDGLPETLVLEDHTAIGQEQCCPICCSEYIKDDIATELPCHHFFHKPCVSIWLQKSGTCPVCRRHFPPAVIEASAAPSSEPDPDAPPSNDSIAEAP

T2: GST-praja2 fusion protein (UniProt O43164)
T2 sequence: T1 sequence

B1: His-tagged MFHAS1 (protein, UniProt Q9Y4C4 1-1052)
chain: MAGMDSGNLKTARLWRDAALRARKLRSNLRQLTLTAAGACPGAGADALESPASPQLVLPANLGDIEALNLGNNGLEEVPEGLGSALGSLRVLVLRRNRFARLPPAVAELGHHLTELDVSHNRLTALGAEVVSALRELRKLNLSHNQLPALPAQLGALAHLEELDVSFNRLAHLPDSLSCLSRLRTLDVDHNQLTAFPRQLLQLVALEELDVSSNRLRGLPEDISALRALKILWLSGAELGTLPAGFCELASLESLMLDNNGLQALPAQFSCLQRLKMLNLSSNLFEEFPAALLPLAGLEELYLSRNQLTSVPSLISGLGRLLTLWLDNNRIRYLPDSIVELTGLEELVLQGNQIAVLPDHFGQLSRVGLWKIKDNPLIQPPYEVCMKGIPYIAAYQKELAHSQPAVQPRLKLLLMGHKAAGKTLLRHCLTEERVEGCPGGGDKEKCYPPSPPPVSKGIEVTSWTADASRGLRFIVYDLAGDESYEVIQPFFLSPGALYVLVVNLATYEPRHFPTTVGSFLHRVGARVPHAVVCIVGTHADLCGERELEEKCLDIHRQIALQEKHDAEGLSRLAKVVDEALARDFELRSASPHAAYYGVSDKNLRRRKAHFQYLLNHRLQILSPVLPVSCRDPRHLRRLRDKLLSVAEHREIFPNLHRVLPRSWQVLEELHFQPPQAQRLWLSWWDSARLGLQAGLTEDRLQSALSYLHESGKLLYFEDSPALKEHVFHNLTRLIDILNVFFQRDPSLLLHKLLLGTSGEGKAEGESSPPMARSTPSQELLRATQLHQYVEGFLLHGLLPAHVIRLLLKPHVQAQQDLQLLLELLEKMGLCYCLNKPKGKPLNGSTAWYKFPCYVQNEVPHAEAWINGTNLAGQSFVAEQLQIEYSFPFTFPLGLFARYSVQINSHVVHRSDGKFQIFAYRGKVPVVVSYRPARGVLQPDTLSIASHASLPNIWTAWQAITPLVEELNVLLQEWPGLHYTVHILCSKCLKRGSPNPHAFPGELLSQPRPEGVAEIICPKNGSERVNVALVYPPTPTVISPCSKKNVGEKHRNQ
B2: HA-tagged MFHAS1 (malignant fibrous histiocytoma amplified sequence 1) (protein, UniProt Q9Y4C4 1-1052)
chain: B1 chain

Legend:
Flag-tagged praja2 = target: T1, Flag-tagged praja2; test: co-IP; HEK293 cells, transfected, MG132 (20 uM) for 6 h; lysates immunoprecipitated with anti-praja2 or anti-His antibody or normal IgG overnight at 4 °C, protein G-Agarose; immunoblotting
[1] = target: T2, GST-praja2 fusion protein; test: pull-down; GST-praja2 or GST immobilised on glutathione Sepharose 4B beads, incubated overnight at 4 °C with HEK293-MFHAS1 lysate; binding buffer 20 mM Na3PO4, 0.5 M NaCl, 30 mM imidazole pH 7.4; blots with anti-GST and anti-HA; only the target purified

| Binder | binding (Flag-tagged praja2) | binding [1] |
| --- | --- | --- |
| B1 | binds | – |
| B2 | – | binds |
